{"source": "paper PMC7819943", "about": "“Rice protein-binding microarrays: a tool to detect cis-acting elements near promoter regions in rice”", "note": "This is one part of the list."}
{"target": "T1, OsSMF1 (Oryza sativa, UniProt Q6ZLB0 1-436)", "T1 sequence": "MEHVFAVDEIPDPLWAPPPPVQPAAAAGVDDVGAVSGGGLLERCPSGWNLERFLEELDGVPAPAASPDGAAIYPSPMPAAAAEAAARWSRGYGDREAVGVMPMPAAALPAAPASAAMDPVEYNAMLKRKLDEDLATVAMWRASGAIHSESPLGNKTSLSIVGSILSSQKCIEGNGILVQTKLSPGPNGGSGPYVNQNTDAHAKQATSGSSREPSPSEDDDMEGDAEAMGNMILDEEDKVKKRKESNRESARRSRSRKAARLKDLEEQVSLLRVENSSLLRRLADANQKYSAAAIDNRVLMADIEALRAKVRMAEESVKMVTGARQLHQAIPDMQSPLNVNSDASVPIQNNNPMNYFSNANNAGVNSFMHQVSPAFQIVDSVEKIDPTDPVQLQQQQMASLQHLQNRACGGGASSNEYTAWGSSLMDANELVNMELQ", "assay": "protein-binding microarray (RPBM); PBS, 2% BSA, 51.3 ng/ul salmon testes DNA, 50 uM zinc acetate, 200 nM TF, 25 C, 1 h; high values mean tight binding", "settings": "protein: recombinant; tags: N-terminal polyhistidine and DsRed monomer fusion (pET32a); chain copies: 2; label: CyDye5-dUTP incorporated in the synthesized complementary strand; 3' TTTTT single-stranded linker to array surface; dsDNA, one strand shown", "method_in_brief": "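Transcription factors were made in E. coli BL21-CodonPlus as N-terminal fusions to a polyhistidine tag and DsRed, then purified on Ni–NTA. After primer extension with Cy5-dUTP and blocking with 2% BSA, a custom Agilent array was exposed for 1 h at 25 °C to 200 nM protein in PBS, 2% BSA, salmon testes DNA and 50 µM zinc acetate. Washed arrays were scanned on an Axon 4000B, and the binding signal is per-feature fluorescence intensity in arbitrary units.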"}
{"sequence": "CACGGGACGCCGCGCGCTCTGCCGCGTCGTCGTCCCCTCTCGGAGTCACCTAGTGCAG", "binding signal": "3660 fluorescence intensity (a.u.)"}
{"sequence": "AAGGGTCAGGACTGCTCGTTAACACGTGGATCCTCAGTTCCGGAGTCACCTAGTGCAG", "binding signal": "8690 fluorescence intensity (a.u.)"}
{"sequence": "CCGCCGATCCATCGCCGCCGCTGCCGCCGTTTTCTATTGTCGGAGTCACCTAGTGCAG", "binding signal": "3270 fluorescence intensity (a.u.)"}
{"sequence": "GCGAGCAGTCGATGTCCTCGATGACGATGATGGACTTGCTCGGAGTCACCTAGTGCAG", "binding signal": "4140 fluorescence intensity (a.u.)"}
{"sequence": "CCACCGTCCGATTACGACACGTGGCGCGATCCCAGCGGCCCGGAGTCACCTAGTGCAG", "binding signal": "16900 fluorescence intensity (a.u.)"}
{"sequence": "GATTAGATTCGGGTCACTTTTAATGAAGTCAAAGTGGACTCGGAGTCACCTAGTGCAG", "binding signal": "13500 fluorescence intensity (a.u.)"}
{"sequence": "ACTGTTATGGAGCTGGGTATTACCCCAATTGTGACATCTGCGGAGTCACCTAGTGCAG", "binding signal": "23100 fluorescence intensity (a.u.)"}
{"sequence": "GGTACACTAAAATTTCAGATATAGCTACCAAATTTCCTGTCGGAGTCACCTAGTGCAG", "binding signal": "24200 fluorescence intensity (a.u.)"}
{"sequence": "AACTTGTTCCAGCTGCAGCTTTTCCTAAAAGCTGCTTCTGCGGAGTCACCTAGTGCAG", "binding signal": "3170 fluorescence intensity (a.u.)"}
{"sequence": "GAGCGGACGGTGCAGGACGCGCTGGACCGGGCGTCCGTGGCGGAGTCACCTAGTGCAG", "binding signal": "3850 fluorescence intensity (a.u.)"}
{"sequence": "GCGTAGTATTTGTCGTAACCAGGAGCATCCGAGTCATTAACGGAGTCACCTAGTGCAG", "binding signal": "4680 fluorescence intensity (a.u.)"}
{"sequence": "CAAGACGTTGGAAACCCAGTCACCCACGGCCACAGCCCAACGGAGTCACCTAGTGCAG", "binding signal": "3350 fluorescence intensity (a.u.)"}
{"sequence": "AATTAATCATTACTAACTTGTTTCATTTTACGTGGACTAACGGAGTCACCTAGTGCAG", "binding signal": "3420 fluorescence intensity (a.u.)"}
{"sequence": "TGAAGGTGCTGTGTTTTGAGTGCTTGGGATGAGCTGCGTGCGGAGTCACCTAGTGCAG", "binding signal": "3630 fluorescence intensity (a.u.)"}
{"sequence": "GGATGCGACCGTCATCACCGTTTGCCGTGTAGCGGATGCCCGGAGTCACCTAGTGCAG", "binding signal": "4740 fluorescence intensity (a.u.)"}
{"sequence": "AGAGAAAGGAAGGGAAGAGAGAGGGTGATGACGTGGCGACCGGAGTCACCTAGTGCAG", "binding signal": "35600 fluorescence intensity (a.u.)"}
{"sequence": "GCGTAATAAGCCGATGCGCGTCATCGGGCCGAGCCTGACGCGGAGTCACCTAGTGCAG", "binding signal": "4490 fluorescence intensity (a.u.)"}
{"sequence": "AGCTGGTGTTGGTGGTGTTGGTGGTGGTAGGCGGCGGCGTCGGAGTCACCTAGTGCAG", "binding signal": "3680 fluorescence intensity (a.u.)"}
{"sequence": "AAGGATGGAGGTAGCTAAGCCAACTCGATCAGGGTTGTCACGGAGTCACCTAGTGCAG", "binding signal": "3210 fluorescence intensity (a.u.)"}
{"sequence": "ACAGAGAAACACGCTGGCACTCTTGAGATGATTAGATCTGCGGAGTCACCTAGTGCAG", "binding signal": "4260 fluorescence intensity (a.u.)"}
{"sequence": "TCTGGCACGCTGAAATTGCTGCCGCAAGTACAACAAGAGCCGGAGTCACCTAGTGCAG", "binding signal": "3320 fluorescence intensity (a.u.)"}
{"sequence": "AAATGGATGATGTAATCTTATCTTCTTCATGTAGCTGGTGCGGAGTCACCTAGTGCAG", "binding signal": "3760 fluorescence intensity (a.u.)"}
{"sequence": "ATTTTATTGGGATCAAATTACCACGTAGGCGCCACGTCAACGGAGTCACCTAGTGCAG", "binding signal": "20900 fluorescence intensity (a.u.)"}
{"sequence": "TTGTGGGTGTCTGCGTTGGCCTCTTATATGGCAGGTTTGACGGAGTCACCTAGTGCAG", "binding signal": "3250 fluorescence intensity (a.u.)"}
{"sequence": "CGAGGAGAGGGAGAGGGGCTTCATCTGCTGCTGCTTCGGCCGGAGTCACCTAGTGCAG", "binding signal": "3900 fluorescence intensity (a.u.)"}
{"sequence": "CCTCCCCTACGCGTCCCACGTCCGCAAGACGGCCGGCTACCGGAGTCACCTAGTGCAG", "binding signal": "6470 fluorescence intensity (a.u.)"}
{"sequence": "GAGAGAGCATATGGTGGTAAAAGGACAGTGACGCGACAGCCGGAGTCACCTAGTGCAG", "binding signal": "6670 fluorescence intensity (a.u.)"}
{"sequence": "CCGTGGCGCGGAGCGAGGCGGCGCAGATGGGGTACTACGCCGGAGTCACCTAGTGCAG", "binding signal": "3400 fluorescence intensity (a.u.)"}
{"sequence": "GTACGACCAATTTCCGTTTCATCATCATGTCGGGCAGTAACGGAGTCACCTAGTGCAG", "binding signal": "23800 fluorescence intensity (a.u.)"}
{"sequence": "ATTTAATGTCCTAAGTTTAGTATTGGAGTCATACATCTATCGGAGTCACCTAGTGCAG", "binding signal": "3320 fluorescence intensity (a.u.)"}
{"sequence": "TGAGTCAGAGAAGTACAGGTGGATGGGCAGTGCTCGTCTTCGGAGTCACCTAGTGCAG", "binding signal": "31600 fluorescence intensity (a.u.)"}
{"sequence": "AAACCGTACATATTAAAATAGACTACCGATATTTTCCTTTCGGAGTCACCTAGTGCAG", "binding signal": "31300 fluorescence intensity (a.u.)"}
{"sequence": "CCTTGTGTGTGTCAGATCGCTGCCAGCCAATTGTCAAGTGCGGAGTCACCTAGTGCAG", "binding signal": "3910 fluorescence intensity (a.u.)"}
{"sequence": "TTTGTCCAGGCGGCGTGTCGGGTGTTCGCTCGCAGTGGCCCGGAGTCACCTAGTGCAG", "binding signal": "3950 fluorescence intensity (a.u.)"}
{"sequence": "CCCCGTGGTGCAGCGCACGTGCGAGGTCGTTACCCCTCTCCGGAGTCACCTAGTGCAG", "binding signal": "3280 fluorescence intensity (a.u.)"}
{"sequence": "TATATGAAATCAAAATAAGTGTCTTTACCATGTCATCGTCCGGAGTCACCTAGTGCAG", "binding signal": "5260 fluorescence intensity (a.u.)"}
{"sequence": "CTCATGGGCTCCTGCTGCTACCACCAACTGATCTCTCCTACGGAGTCACCTAGTGCAG", "binding signal": "3170 fluorescence intensity (a.u.)"}
{"sequence": "GAAATTGTGCATTCGGTTAAGCCCTGACGTGGATTTTAGCCGGAGTCACCTAGTGCAG", "binding signal": "6800 fluorescence intensity (a.u.)"}
{"sequence": "GGGCGGGCGGGCTCGAGGTTGTGGTGGGGCGTGTGGCAGGCGGAGTCACCTAGTGCAG", "binding signal": "4690 fluorescence intensity (a.u.)"}
{"sequence": "CAGGGCAGCGGCAGGTGGGGAGGAGGCCGGCGGGTCGGCGCGGAGTCACCTAGTGCAG", "binding signal": "3470 fluorescence intensity (a.u.)"}
{"sequence": "TCACCAAGACCATAAATTGACACATCGCATGCCACCAGGGCGGAGTCACCTAGTGCAG", "binding signal": "5190 fluorescence intensity (a.u.)"}
{"sequence": "ACACTTCAACGTTGCATACGTGGCGCCCCACCACACCACCCGGAGTCACCTAGTGCAG", "binding signal": "20700 fluorescence intensity (a.u.)"}
